Measured values taken from PubChem BioAssay AID493014 (National Center for Advancing Translational Sciences (NCATS), 2011).
Some of the results follow. These are further read-outs of the screen, such as a control signal, another cell line or another target. No call is given for them. Compounds called inactive in the main read-out are mostly missing here. The note in brackets gives the kind of curve behind each potency; many fits are weak.

Test: qHTS Assay to Find Inhibitors of Chronic Active B-Cell Receptor Signaling
Details: ABC-DLBCL IkBa-CBG/CBR reporter, luminescence ratio (green luciferase fused to IkBa over red control in TMD8 lymphoma cells), 4 h
Outline: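 TMD8 human ABC-DLBCL cells with doxycycline-inducible IκBα–green luciferase fusion and unfused red luciferase, in 0.5% FBS medium; compounds up to 46 uM, 4 h at 37C. Green/red luminescence ratio, filter-overlap corrected, fitted to concentration-response curves.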

[1] = measured here: CBR red luminescence, cell number
[2] = measured here: IkBa-CBG green luminescence

Row | SMILES | AC50 [1] | AC50 [2]
1 | COc1cc(/C=N/N=C(\N)c2nonc2N)ccc1O | 11.2 µM [falling, partial curve, poor fit] | 
2 | Cc1sc2c(c1C)CN(Cc1ccncc1)CN2C(=O)c1ccco1 | 20.6 µM [falling, single point] | 
3 | CCn1c(O)c(C=C2N=c3ccccc3=N2)sc1=S | 5.62 µM [falling, single point] | 
4 | CCOC(=O)c1cc(C)sc1NC(=O)CN1CCN(C(=O)c2ccco2)CC1 | 3.16 µM [rising, partial curve, poor fit] | 
5 | CCc1ccc(CN(C)CC(=O)Nc2ccccc2[N+](=O)[O-])cc1 | 23.1 µM [rising, single point] | 
6 | CCN1CCN(C(=O)C(C)Oc2ccc(S(=O)(=O)N3CCCC3)cc2C(N)=O)CC1 (stereo unspecified) | 25.9 µM [rising, single point] | 
7 | CN(C)CC1CCCCC1OC(=O)c1ccc(S(=O)(=O)N(C)c2ccccc2)cc1 (stereo unspecified) | 2 µM [falling, full curve, poor fit] | 
8 | C[C@@H](C(=O)NCc1ccccc1)[C@H]1C[C@]1(C)[C@H](NC(=O)OCc1ccccc1)c1ccccc1 | 29.1 µM [falling, single point] | 
9 | Oc1ccccc1C(=S)N1CCN(C(=S)c2ccccc2O)CC1 | 11.2 µM [falling, single point] | 
10 | Cc1ccc(/C=N/NC(=O)c2ccc(-n3cnnn3)cc2)cc1 | 14.6 µM [falling, partial curve, poor fit] | 
11 | O=C(Cc1ccc(-c2ccccc2)cc1)NNC(=S)NCc1ccco1 | 6.31 µM [rising, partial curve, poor fit] | 
12 | COc1ccc(C2=NN(C(=O)c3cccs3)C(c3ccccc3OC)C2)cc1OC (stereo unspecified) | 11.2 µM [falling, partial curve, poor fit] | 
13 | CCC(=O)c1ccccc1OCCCN1C(=O)NC(C)(C)C1=O | 6.51 µM [rising, single point] | 
14 | Cn1c(=O)c2[nH]c(N3CCN(c4cccc(O)c4)CC3)nc2n(C)c1=O | 0.355 µM [falling, full curve, poor fit] | 2 µM [rising, partial curve, poor fit]
15 | Cc1cc(C)c(S(=O)(=O)N(C)CC(=O)NCc2ccncc2)c(C)c1 | 0.794 µM [rising, full curve, poor fit] | 
16 | CCCc1nc(SCC(=O)Nc2ccc(N3CCOCC3)cc2)c2ccccc2n1 | 29.1 µM [rising, single point] | 
17 | NC(=O)c1ccccc1NC(=O)/C=C/C(=O)O | 11.6 µM [rising, partial curve, poor fit] | 
18 | CCSc1nc2sc3c(c2c(=O)[nH]1)CCc1ccccc1-3 | 5.8 µM [falling, partial curve, poor fit] | 
19 | O=C(CCNc1ccc(Cc2ccncc2)cc1)c1ccc([N+](=O)[O-])cc1 | 25.1 µM [falling, single point] | 
20 | CC(C)C1CC(CCN)(Cc2ccccc2)CCO1 (stereo unspecified) | 0.316 µM [rising, full curve, poor fit] | 

Row | SMILES | AC50 [1] | AC50 [2]
21 | COc1ccccc1N1CCN(CC(=O)Nc2ccc(Cl)c(C(F)(F)F)c2)CC1 | 18.4 µM [falling, single point] | 
22 | CC(C)(C)c1ccc2c(c1)OC(C(=O)N/N=C\c1ccccn1)CO2 (stereo unspecified) | 32.6 µM [falling, partial curve, poor fit] | 
23 | COC(=O)c1ccc2c(=O)n(CCCCCC(=O)NCc3ccc4c(c3)OCO4)c(=O)[nH]c2c1 | 23.1 µM [falling, single point] | 
24 | O=C(Nc1ccc(F)cc1)c1cccc(N2C(=O)C3C4CCC(C4)C3C2=O)c1 (stereo unspecified) | 29.1 µM [falling, partial curve, poor fit] | 
25 | Oc1cccc(/C=N/NC(=S)NCCN2CCOCC2)c1O | 11.2 µM [falling, partial curve] | 
26 | O=C(N/N=C1/C(=O)c2cccc3cccc1c23)c1ccc(Cl)cc1 | 8.2 µM [falling, partial curve, poor fit] | 
27 | COc1ccc(-c2csc3nc(C(C)(C)C)oc(=O)c23)cc1OC | 35.5 µM [falling, single point] | 
28 | COc1ccc2c(C(=O)CCl)c[nH]c2c1 | 12.6 µM [falling, partial curve, poor fit] | 
29 | COc1ccc(CCNC(=O)C(=O)NCC2OCCN2S(=O)(=O)c2ccc(Br)cc2)cc1 (stereo unspecified) | 0.00461 µM [rising, full curve, poor fit] | 
30 | CCc1cc(=O)oc2cc(C)cc(OCC(=O)NCc3ccccn3)c12 | 0.0794 µM [rising, full curve, poor fit] | 
31 | O=C(CCl)N(Cc1cc(=O)[nH]c2ccccc12)c1ccccc1 | 2.82 µM [falling, full curve, poor fit] | 
32 | Cc1cc(=O)oc2cc(NC(=O)C3CCCC3)ccc12 | 4.47 µM [rising, partial curve, poor fit] | 
33 | CCC(Sc1nnc(-c2ccc(OC)cc2)c(-c2ccc(OC)cc2)n1)C(=O)Nc1cccc(OC)c1 (stereo unspecified) | 2.24 µM [rising, partial curve, poor fit] | 
34 | Oc1ccc(/C=N/Nc2nn3cnnc3c3ccccc23)cc1 | 5.01 µM [falling, partial curve] | 
35 | CN(CCO)C(=O)c1c(NC(=O)c2ccccc2)sc2c1CCCC2 | 10 µM [falling, partial curve, poor fit] | 
36 | CC(C)CN(C(=O)COC(=O)C12CC3CC(CC(O)(C3)C1)C2)C1CCS(=O)(=O)C1 (stereo unspecified) | 35.5 µM [rising, partial curve, poor fit] | 
37 | COc1cccc(N=CC2=C(O)CC(C)(C)CC2=O)c1 |  | 16.4 µM [falling, single point]
38 | Cc1csc2c(N3CCN(C(=O)Nc4ccccc4)CC3)ncnc12 | 3.16 µM [rising, partial curve] | 
39 | CCCCCCc1nc2c(=O)[nH]c3ccccc3c2o1 | 29.1 µM [falling, single point] | 32.6 µM [rising, partial curve, poor fit]

Part of the list above in order of length of the SMILES, descending.
Row | SMILES | AC50 [1] | AC50 [2]
33 | CCC(Sc1nnc(-c2ccc(OC)cc2)c(-c2ccc(OC)cc2)n1)C(=O)Nc1cccc(OC)c1 (stereo unspecified) | 2.24 µM [rising, partial curve, poor fit] | 
31 | O=C(CCl)N(Cc1cc(=O)[nH]c2ccccc12)c1ccccc1 | 2.82 µM [falling, full curve, poor fit] | 
28 | COc1ccc2c(C(=O)CCl)c[nH]c2c1 | 12.6 µM [falling, partial curve, poor fit] | 
